Results are given in words; binding and its absence hold for the method and conditions named. In cells and extracts the contact can be indirect. Some results given as binding are weak or reduced against the parent protein; the word gives no strength. For part of these data: Sequences can lack the tags named with a protein.

The chains behind the UniProt entries cited, without tags or fusion partners.
UniProt P21281: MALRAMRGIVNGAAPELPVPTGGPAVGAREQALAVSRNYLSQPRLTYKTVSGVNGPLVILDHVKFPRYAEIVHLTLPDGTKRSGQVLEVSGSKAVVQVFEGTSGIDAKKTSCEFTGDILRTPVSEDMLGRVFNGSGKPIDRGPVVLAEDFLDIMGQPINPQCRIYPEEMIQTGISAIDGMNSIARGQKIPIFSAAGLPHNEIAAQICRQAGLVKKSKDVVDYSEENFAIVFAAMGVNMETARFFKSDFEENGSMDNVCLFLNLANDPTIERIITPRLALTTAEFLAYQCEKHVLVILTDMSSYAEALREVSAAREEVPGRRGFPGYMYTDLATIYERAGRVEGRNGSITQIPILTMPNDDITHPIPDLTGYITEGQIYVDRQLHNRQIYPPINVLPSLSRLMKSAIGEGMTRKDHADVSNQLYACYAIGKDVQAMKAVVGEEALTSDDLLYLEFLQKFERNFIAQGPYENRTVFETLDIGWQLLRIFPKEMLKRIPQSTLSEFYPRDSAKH
UniProt P84022: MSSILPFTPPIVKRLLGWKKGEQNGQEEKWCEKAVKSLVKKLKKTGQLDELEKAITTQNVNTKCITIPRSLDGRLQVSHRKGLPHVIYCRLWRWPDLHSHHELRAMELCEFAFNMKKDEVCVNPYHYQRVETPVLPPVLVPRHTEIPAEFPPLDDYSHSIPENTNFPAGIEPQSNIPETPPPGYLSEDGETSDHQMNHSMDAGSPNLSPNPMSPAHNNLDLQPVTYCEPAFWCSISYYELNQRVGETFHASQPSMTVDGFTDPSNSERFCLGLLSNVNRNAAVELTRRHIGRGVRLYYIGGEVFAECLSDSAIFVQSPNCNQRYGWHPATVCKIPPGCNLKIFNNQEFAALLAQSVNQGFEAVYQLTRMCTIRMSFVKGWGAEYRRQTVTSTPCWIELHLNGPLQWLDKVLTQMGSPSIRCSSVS
UniProt Q9HAV0: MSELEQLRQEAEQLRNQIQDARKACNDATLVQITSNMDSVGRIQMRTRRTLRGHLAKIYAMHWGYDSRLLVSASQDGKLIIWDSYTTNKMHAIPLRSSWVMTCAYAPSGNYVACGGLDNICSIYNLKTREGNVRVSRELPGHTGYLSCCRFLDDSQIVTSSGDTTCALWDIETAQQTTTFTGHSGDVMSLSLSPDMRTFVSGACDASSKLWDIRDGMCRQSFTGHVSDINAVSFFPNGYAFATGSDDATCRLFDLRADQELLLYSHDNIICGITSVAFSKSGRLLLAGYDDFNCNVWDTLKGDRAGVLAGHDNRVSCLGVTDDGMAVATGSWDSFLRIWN

The text below walks through data of paper PMC9584938.

Assay [1] addresses T1, frizzled 9 (FZD9) (human (endogenous in HEK293)) (UniProt O00144).
T1 sequence: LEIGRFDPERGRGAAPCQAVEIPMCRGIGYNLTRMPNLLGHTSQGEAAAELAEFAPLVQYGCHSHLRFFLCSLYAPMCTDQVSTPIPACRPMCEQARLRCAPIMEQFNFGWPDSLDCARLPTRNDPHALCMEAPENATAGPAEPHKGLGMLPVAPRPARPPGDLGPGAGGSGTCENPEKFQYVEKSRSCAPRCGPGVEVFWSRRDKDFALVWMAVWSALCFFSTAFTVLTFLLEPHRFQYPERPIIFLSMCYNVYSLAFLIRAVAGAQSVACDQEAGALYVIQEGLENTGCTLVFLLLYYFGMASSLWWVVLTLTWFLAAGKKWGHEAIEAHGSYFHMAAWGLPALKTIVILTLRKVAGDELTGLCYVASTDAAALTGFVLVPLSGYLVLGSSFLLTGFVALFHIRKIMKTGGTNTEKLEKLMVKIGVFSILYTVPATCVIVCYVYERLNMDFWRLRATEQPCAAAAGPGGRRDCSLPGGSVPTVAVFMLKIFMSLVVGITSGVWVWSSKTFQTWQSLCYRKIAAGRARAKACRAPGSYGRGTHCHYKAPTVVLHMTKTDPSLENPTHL
Kind of assay: co-IP; HEK293 lysate (RIPA or 1% NP-40 lysis buffer), 1.6 mg protein with 3 µg antibody overnight at 4 °C, Protein A beads, western blot; control: empty beads.

Assay [2] concerns the target FLOT1 (human (endogenous in HEK293)) (UniProt O75955). Described as above.
For assay [3], the target named is T2, FLOT2 (human (endogenous in HEK293)) (UniProt Q14254).
T2 sequence: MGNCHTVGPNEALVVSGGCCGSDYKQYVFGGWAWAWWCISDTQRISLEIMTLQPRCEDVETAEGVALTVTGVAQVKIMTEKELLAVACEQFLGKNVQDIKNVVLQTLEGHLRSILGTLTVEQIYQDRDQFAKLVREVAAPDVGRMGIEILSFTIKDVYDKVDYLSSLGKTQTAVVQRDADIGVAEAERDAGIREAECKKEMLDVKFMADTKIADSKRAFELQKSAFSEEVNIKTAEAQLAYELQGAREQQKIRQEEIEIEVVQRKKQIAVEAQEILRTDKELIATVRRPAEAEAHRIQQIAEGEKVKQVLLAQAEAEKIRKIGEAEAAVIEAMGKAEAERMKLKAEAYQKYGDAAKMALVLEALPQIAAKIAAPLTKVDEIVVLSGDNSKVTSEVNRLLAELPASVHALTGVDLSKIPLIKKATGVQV
Kind of assay: cross-linking; XL-LC-MS/MS: lysosome-enriched fractions (SPIONs) of HEK293 cells, intact and disrupted, 1 mg/mL protein in isolation buffer, 0.25 mM DSSO, 30 min at room temperature; XlinkX, FDR 5 %.

The target of assay [4] is T2, FLOT2 (human (endogenous in HEK293)). The assay is described as follows: co-IP; HEK293 lysate (RIPA or 1% NP-40 lysis buffer), 1.6 mg protein with 3 µg antibody overnight at 4 °C, Protein A beads, western blot; control: empty beads.
In assay [5] the target is T3, FLAG-FLOT1 lacking amino acid residues 200–300 (Δ100) (UniProt O75955).
T3 sequence: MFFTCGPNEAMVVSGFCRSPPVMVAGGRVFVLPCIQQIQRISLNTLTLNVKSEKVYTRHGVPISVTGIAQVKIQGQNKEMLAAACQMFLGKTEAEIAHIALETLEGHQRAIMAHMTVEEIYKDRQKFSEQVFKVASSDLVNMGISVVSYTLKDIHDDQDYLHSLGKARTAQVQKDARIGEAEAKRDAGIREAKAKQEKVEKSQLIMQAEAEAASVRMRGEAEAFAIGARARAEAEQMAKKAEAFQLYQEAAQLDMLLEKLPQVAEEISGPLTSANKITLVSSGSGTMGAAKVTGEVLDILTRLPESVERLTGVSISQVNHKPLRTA
The assay is described as follows: co-IP; FLAG-IP from HEK293 cells co-transfected with full-length FLAG-FLOT1 and FLAG-FLOT2 or with both Δ100 versions; detection of GNB4 by western blot.

In assay [6] the target is full-length FLAG-FLOT1 (UniProt O75955). Described as above.
Assay [7] has as its target T4, full-length FLAG-FLOT2 (UniProt Q14254).
T4 sequence: T2 sequence
The description is as above.

Assay [8] has as its target T5, FLAG-FLOT2 lacking amino acid residues 200–300 (Δ100) (UniProt Q14254).
T5 sequence: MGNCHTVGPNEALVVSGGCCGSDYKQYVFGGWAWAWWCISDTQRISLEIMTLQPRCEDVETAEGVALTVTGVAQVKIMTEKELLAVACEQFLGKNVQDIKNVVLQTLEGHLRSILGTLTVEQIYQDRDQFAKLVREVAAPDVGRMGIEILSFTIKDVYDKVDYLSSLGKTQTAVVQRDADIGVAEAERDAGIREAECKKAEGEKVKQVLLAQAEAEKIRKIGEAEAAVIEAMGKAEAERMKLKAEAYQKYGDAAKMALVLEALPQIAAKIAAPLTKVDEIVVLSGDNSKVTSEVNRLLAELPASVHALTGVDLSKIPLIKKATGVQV
The description is as above.

Turning to ATP6V1B2 (from UniProt P21281 1-511), the binding result in assay [1] is “binds”.
Turning to SMAD3 (from UniProt P84022 1-425), in assay [2], the binding result is listed as “binds”.
Take “guanine-nucleotide-binding protein subunit beta-4 (GNB4) (from UniProt Q9HAV0 1-340)”: the binding entry in assay [3] is reported as “binds”; in assay [4], “binds”; in assay [2], “binds”; in assay [5], “no binding”; in assay [6], “binds”; in assay [7], “binds”. For the same substance, the binding entry in assay [8] is reported as “no binding”.
